Experimental data reported in the supplement of paper PMC7661543.
± gives the standard deviation of the averaged measurements. The effect of the compound repeats well; differences between the knockouts mostly do not.

Test system: MDA-MB-231
Assay: relative cell number vs DMSO control (72 h) (% of DMSO); higher = less growth inhibition (more cells)
Protocol: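 QMAP-Seq: a pool of 5 breast cancer cell lines (ZR-75-1, SKBR3, HCC-38, MDA-MB-231, BT-20), each carrying 12 doxycycline-inducible Cas9 sgRNA perturbations (11 knockouts plus non-targeting sgNT), was treated with compounds for 72 h at four 10-fold doses (10 nM-10 uM or 1 nM-1 uM range). Barcodes were amplified and sequenced, and cell number was interpolated from 293T spike-in standard curves. The result is expressed as % of the median of DMSO wells. Two biological replicates.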

C#Cc1cccc(Nc2ncnc3cc(OCCOC)c(OCCOC)cc23)c1 [Erlotinib]
Details	relative cell number
sgRNA knockout: sgATF3, 10 nM	109 ± 14
sgRNA knockout: sgATF3, 100 nM	105 ± 5.2
sgRNA knockout: sgATF3, 1000 nM	97.8 ± 2.9
sgRNA knockout: sgATF3, 10000 nM	88.7 ± 12
sgRNA knockout: sgATF4, 10 nM	124.3 ± 0.71
sgRNA knockout: sgATF4, 100 nM	113 ± 8.3
sgRNA knockout: sgATF4, 1000 nM	87.4 ± 10
sgRNA knockout: sgATF4, 10000 nM	104 ± 1.6
sgRNA knockout: sgATF6, 10 nM	114 ± 12
sgRNA knockout: sgATF6, 100 nM	75.8 ± 7.4
sgRNA knockout: sgATF6, 1000 nM	110 ± 14
sgRNA knockout: sgATF6, 10000 nM	83 ± 16
sgRNA knockout: sgATG7, 10 nM	116 ± 15
sgRNA knockout: sgATG7, 100 nM	88.2 ± 4
sgRNA knockout: sgATG7, 1000 nM	88.3 ± 14
sgRNA knockout: sgATG7, 10000 nM	89.5 ± 10
sgRNA knockout: sgERN1, 10 nM	168 ± 5.7
sgRNA knockout: sgERN1, 100 nM	102 ± 19
sgRNA knockout: sgERN1, 1000 nM	96.7 ± 9.7
sgRNA knockout: sgERN1, 10000 nM	83.4 ± 11
sgRNA knockout: sgHSF1, 10 nM	98.9 ± 31
sgRNA knockout: sgHSF1, 100 nM	95.05 ± 0.74
sgRNA knockout: sgHSF1, 1000 nM	101 ± 38
sgRNA knockout: sgHSF1, 10000 nM	83.9 ± 22
sgRNA knockout: sgHSF2, 10 nM	123 ± 53
sgRNA knockout: sgHSF2, 100 nM	96 ± 29
sgRNA knockout: sgHSF2, 1000 nM	107 ± 16
sgRNA knockout: sgHSF2, 10000 nM	80.8 ± 3.5
sgRNA knockout: sgKEAP1, 10 nM	104 ± 3.1
sgRNA knockout: sgKEAP1, 100 nM	109 ± 5.4
sgRNA knockout: sgKEAP1, 1000 nM	97.2 ± 18
sgRNA knockout: sgKEAP1, 10000 nM	87.3 ± 20
sgRNA knockout: sgNFE2L2, 10 nM	128 ± 19
sgRNA knockout: sgNFE2L2, 100 nM	91.2 ± 12
sgRNA knockout: sgNFE2L2, 1000 nM	100 ± 16
sgRNA knockout: sgNFE2L2, 10000 nM	81.1 ± 7.8
sgRNA knockout: sgSLC35F2, 10 nM	108 ± 35
sgRNA knockout: sgSLC35F2, 100 nM	98.1 ± 18
sgRNA knockout: sgSLC35F2, 1000 nM	82.8 ± 2.2
sgRNA knockout: sgSLC35F2, 10000 nM	72.6 ± 0.74
sgRNA knockout: sgXBP1, 10 nM	128 ± 31
sgRNA knockout: sgXBP1, 100 nM	91.2 ± 3.6
sgRNA knockout: sgXBP1, 1000 nM	111 ± 9.8
sgRNA knockout: sgXBP1, 10000 nM	81.1 ± 23

Nc1ccn([C@@H]2O[C@H](CO)[C@@H](O)C2(F)F)c(=O)n1 [Gemcitabine]
Details	relative cell number
sgRNA knockout: sgATF3, 10 nM	29.4 ± 5.8
sgRNA knockout: sgATF3, 100 nM	15.8 ± 6.3
sgRNA knockout: sgATF3, 1000 nM	12.2 ± 3.2
sgRNA knockout: sgATF3, 10000 nM	18.1 ± 2.8
sgRNA knockout: sgATF4, 10 nM	23.8 ± 5.6
sgRNA knockout: sgATF4, 100 nM	8.42 ± 0.26
sgRNA knockout: sgATF4, 1000 nM	23.3 ± 1.5
sgRNA knockout: sgATF4, 10000 nM	14.7 ± 4.4
sgRNA knockout: sgATF6, 10 nM	23.1 ± 3.3
sgRNA knockout: sgATF6, 100 nM	13.2 ± 2.7
sgRNA knockout: sgATF6, 1000 nM	12.9 ± 1.3
sgRNA knockout: sgATF6, 10000 nM	15.1 ± 6.1
sgRNA knockout: sgATG7, 10 nM	27.68 ± 0.04
sgRNA knockout: sgATG7, 100 nM	14.5 ± 0.43
sgRNA knockout: sgATG7, 1000 nM	14.9 ± 7.3
sgRNA knockout: sgATG7, 10000 nM	12.32 ± 0.12
sgRNA knockout: sgERN1, 10 nM	23.5 ± 6.6
sgRNA knockout: sgERN1, 100 nM	12.9 ± 0.78
sgRNA knockout: sgERN1, 1000 nM	16.4 ± 6.6
sgRNA knockout: sgERN1, 10000 nM	14.8 ± 3.9
sgRNA knockout: sgHSF1, 10 nM	23 ± 1.6
sgRNA knockout: sgHSF1, 100 nM	15.5 ± 5.9
sgRNA knockout: sgHSF1, 1000 nM	13.2 ± 5.2
sgRNA knockout: sgHSF1, 10000 nM	14.5 ± 1.7
sgRNA knockout: sgHSF2, 10 nM	25.6 ± 6.9
sgRNA knockout: sgHSF2, 100 nM	12.8 ± 1.6
sgRNA knockout: sgHSF2, 1000 nM	14.7 ± 2
sgRNA knockout: sgHSF2, 10000 nM	14.8 ± 0.16
sgRNA knockout: sgKEAP1, 10 nM	27.1 ± 0.45
sgRNA knockout: sgKEAP1, 100 nM	15.9 ± 2.8
sgRNA knockout: sgKEAP1, 1000 nM	14.8 ± 1.5
sgRNA knockout: sgKEAP1, 10000 nM	13.5 ± 2.2
sgRNA knockout: sgNFE2L2, 10 nM	23.2 ± 3.3
sgRNA knockout: sgNFE2L2, 100 nM	16.2 ± 4.8
sgRNA knockout: sgNFE2L2, 1000 nM	16.2 ± 2.8
sgRNA knockout: sgNFE2L2, 10000 nM	12.1 ± 1.4
sgRNA knockout: sgSLC35F2, 10 nM	23.9 ± 5.8
sgRNA knockout: sgSLC35F2, 100 nM	16.9 ± 3.5
sgRNA knockout: sgSLC35F2, 1000 nM	11.1 ± 0.28
sgRNA knockout: sgSLC35F2, 10000 nM	12.4 ± 1.5
sgRNA knockout: sgXBP1, 10 nM	23.5 ± 4.1
sgRNA knockout: sgXBP1, 100 nM	16.6 ± 3.4
sgRNA knockout: sgXBP1, 1000 nM	17.3 ± 3.5
sgRNA knockout: sgXBP1, 10000 nM	16.4 ± 0.81

Cc1cc2c(C(C)C)c(O)c(O)c(C=O)c2c(O)c1-c1c(C)cc2c(C(C)C)c(O)c(O)c(C=O)c2c1O [Gossypol]
Details	relative cell number
sgRNA knockout: sgATF3, 10 nM	89.9 ± 9.5
sgRNA knockout: sgATF3, 100 nM	85.2 ± 11
sgRNA knockout: sgATF3, 1000 nM	109 ± 7.9
sgRNA knockout: sgATF3, 10000 nM	25.7 ± 8.1
sgRNA knockout: sgATF4, 10 nM	107 ± 50
sgRNA knockout: sgATF4, 100 nM	103 ± 8.5
sgRNA knockout: sgATF4, 1000 nM	101 ± 5.7
sgRNA knockout: sgATF4, 10000 nM	23.5 ± 1
sgRNA knockout: sgATF6, 10 nM	105 ± 7.8
sgRNA knockout: sgATF6, 100 nM	99.9 ± 3
sgRNA knockout: sgATF6, 1000 nM	123 ± 13
sgRNA knockout: sgATF6, 10000 nM	25.7 ± 8.3
sgRNA knockout: sgATG7, 10 nM	92.2 ± 34
sgRNA knockout: sgATG7, 100 nM	89.6 ± 5.7
sgRNA knockout: sgATG7, 1000 nM	100.9 ± 0.4
sgRNA knockout: sgATG7, 10000 nM	22.9 ± 3.2
sgRNA knockout: sgERN1, 10 nM	85.4 ± 23
sgRNA knockout: sgERN1, 100 nM	141 ± 37
sgRNA knockout: sgERN1, 1000 nM	106 ± 7
sgRNA knockout: sgERN1, 10000 nM	26.1 ± 4.9
sgRNA knockout: sgHSF1, 10 nM	99.3 ± 19
sgRNA knockout: sgHSF1, 100 nM	82.8 ± 7.5
sgRNA knockout: sgHSF1, 1000 nM	95.9 ± 21
sgRNA knockout: sgHSF1, 10000 nM	24 ± 6.5
sgRNA knockout: sgHSF2, 10 nM	112 ± 23
sgRNA knockout: sgHSF2, 100 nM	97.6 ± 18
sgRNA knockout: sgHSF2, 1000 nM	106 ± 5.3
sgRNA knockout: sgHSF2, 10000 nM	25.6 ± 2.6
sgRNA knockout: sgKEAP1, 10 nM	102 ± 17
sgRNA knockout: sgKEAP1, 100 nM	135 ± 5.7
sgRNA knockout: sgKEAP1, 1000 nM	82.4 ± 25
sgRNA knockout: sgKEAP1, 10000 nM	25.35 ± 0.082
sgRNA knockout: sgNFE2L2, 10 nM	69.9 ± 3.6
sgRNA knockout: sgNFE2L2, 100 nM	89.6 ± 11
sgRNA knockout: sgNFE2L2, 1000 nM	93.9 ± 12
sgRNA knockout: sgNFE2L2, 10000 nM	21.9 ± 6.3
sgRNA knockout: sgSLC35F2, 10 nM	112 ± 21
sgRNA knockout: sgSLC35F2, 100 nM	109 ± 32
sgRNA knockout: sgSLC35F2, 1000 nM	105 ± 33
sgRNA knockout: sgSLC35F2, 10000 nM	28.7 ± 6.2
sgRNA knockout: sgXBP1, 10 nM	93.5 ± 5.9
sgRNA knockout: sgXBP1, 100 nM	92.8 ± 10
sgRNA knockout: sgXBP1, 1000 nM	103 ± 31
sgRNA knockout: sgXBP1, 10000 nM	26.3 ± 2.1
